Measurements reported in PubChem BioAssay AID1224830 (NIAID, 2016).
Aim: 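Regulators of TLR4 signalling towards TNF-alpha in macrophage-like cells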 (primary screen). System: human THP-1 monocytic leukaemia cells, TNF dual-luciferase reporter clone, PMA-differentiated to macrophage-like cells. Reagent: siRNA pool against human genes, 50 nM. Timing: LPS for 4 h, given about 3 days after siRNA transfection. Treatment: bacterial LPS (TLR4 ligand), 10 ng/ml. Measured: 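Ratio of firefly to renilla light, scaled to the plate median and expressed as a robust z-score per replicate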. Scale: TNF reporter robust z-score: higher = stronger TNF reporter response to LPS. Active means: 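a well is active when its z-score exceeds 2.8 or falls below -1.5; control wells carry no call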.
The deposit covers about 18,000 reagents; shown is a part drawn at random. Of all reagents, about 2,900 (16%) got an active call. 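Calls are made per well; low scores hint the gene aids the LPS response, high scores that it dampens it.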 Entries without a mark were called inactive. Repeated entries: four replicate wells of each siRNA pool. Reagent sequences are not shown.

gene symbol | TNF reporter robust z-score
BAD (GeneID 572) | -1.69 (active)
BAD (GeneID 572) | -0.55
BAD (GeneID 572) | -0.2
BAD (GeneID 572) | 0.59
BLNK (GeneID 29760) | 0.79
BLNK (GeneID 29760) | 0.54
BLNK (GeneID 29760) | -0.21
BLNK (GeneID 29760) | 1.91
ZNF706 (GeneID 51123) | 0.99
ZNF706 (GeneID 51123) | 1.54
ZNF706 (GeneID 51123) | 1.36
ZNF706 (GeneID 51123) | 0.96
CASTOR1 (GeneID 652968) | -0.43
CASTOR1 (GeneID 652968) | -0.8
CASTOR1 (GeneID 652968) | -1.02
CASTOR1 (GeneID 652968) | -0.89
LNX1 (GeneID 84708) | 0.79
LNX1 (GeneID 84708) | -0.28
LNX1 (GeneID 84708) | -0.22
LNX1 (GeneID 84708) | -1.78 (active)
GOT1 (GeneID 2805) | -0.16
GOT1 (GeneID 2805) | 0.56
GOT1 (GeneID 2805) | 0.94
GOT1 (GeneID 2805) | 0.72
SCAF8 (GeneID 22828) | 1.59
SCAF8 (GeneID 22828) | 1.29
SCAF8 (GeneID 22828) | 0.1
SCAF8 (GeneID 22828) | 0.81
RBM39 (GeneID 9584) | -1.76 (active)
RBM39 (GeneID 9584) | -1.12
RBM39 (GeneID 9584) | -1.45
RBM39 (GeneID 9584) | -1.83 (active)
KCTD21 (GeneID 283219) | -0.66
KCTD21 (GeneID 283219) | -0.5
KCTD21 (GeneID 283219) | -0.94
KCTD21 (GeneID 283219) | -0.4
ORC4 (GeneID 5000) | 0.35
ORC4 (GeneID 5000) | 0.67
ORC4 (GeneID 5000) | 0.98
ORC4 (GeneID 5000) | 0.73
VSTM2L (GeneID 128434) | -1.99 (active)
VSTM2L (GeneID 128434) | -1.16
VSTM2L (GeneID 128434) | -1.41
VSTM2L (GeneID 128434) | -0.71
ARHGAP10 (GeneID 79658) | 1.7
ARHGAP10 (GeneID 79658) | 2.36
ARHGAP10 (GeneID 79658) | 3.56 (active)
ARHGAP10 (GeneID 79658) | 0.92
INO80C (GeneID 125476) | -0.41
INO80C (GeneID 125476) | 0.23
INO80C (GeneID 125476) | -0.75
INO80C (GeneID 125476) | 1.56
NAT1 (GeneID 9) | 0.52
NAT1 (GeneID 9) | 1.13
NAT1 (GeneID 9) | 0.87
NAT1 (GeneID 9) | 0.64
PELP1 (GeneID 27043) | -0.38
PELP1 (GeneID 27043) | 0.83
PELP1 (GeneID 27043) | -0.51
PELP1 (GeneID 27043) | 0.53
TMEM185A (GeneID 84548) | -0.28
TMEM185A (GeneID 84548) | -1.26
TMEM185A (GeneID 84548) | -1.29
TMEM185A (GeneID 84548) | -0.63
CYP4A11 (GeneID 1579) | 2.02
CYP4A11 (GeneID 1579) | 2.32
CYP4A11 (GeneID 1579) | -0.33
CYP4A11 (GeneID 1579) | 2.1
CA9 (GeneID 768) | 0.14
CA9 (GeneID 768) | 0.28
CA9 (GeneID 768) | -0.73
CA9 (GeneID 768) | -1.2
UBE2L3 (GeneID 7332) | -0.33
UBE2L3 (GeneID 7332) | 0.83
UBE2L3 (GeneID 7332) | 1.49
UBE2L3 (GeneID 7332) | -0.04
ANKDD1A (GeneID 348094) | -0.53
ANKDD1A (GeneID 348094) | -0.19
ANKDD1A (GeneID 348094) | -0.62
ANKDD1A (GeneID 348094) | -0.39
ZNF579 (GeneID 163033) | 0.25
ZNF579 (GeneID 163033) | -0.23
ZNF579 (GeneID 163033) | -0.5
ZNF579 (GeneID 163033) | 0.28
IQGAP3 (GeneID 128239) | 0.23
IQGAP3 (GeneID 128239) | -0.48
IQGAP3 (GeneID 128239) | -0.92
IQGAP3 (GeneID 128239) | 0.51
DNAI7 (GeneID 55259) | -1.19
DNAI7 (GeneID 55259) | -1.82 (active)
DNAI7 (GeneID 55259) | -1.66 (active)
DNAI7 (GeneID 55259) | -1.08
GALNT14 (GeneID 79623) | 1.41
GALNT14 (GeneID 79623) | 1.94
GALNT14 (GeneID 79623) | 1.15
GALNT14 (GeneID 79623) | 2.07
CCER1 (GeneID 196477) | -0.07
CCER1 (GeneID 196477) | 0.74
CCER1 (GeneID 196477) | 0.65
CCER1 (GeneID 196477) | -0.65
OR5M11 (GeneID 219487) | 0.46
OR5M11 (GeneID 219487) | 0
OR5M11 (GeneID 219487) | 0.03
OR5M11 (GeneID 219487) | -0.05
ALOX15 (GeneID 246) | -1.47
ALOX15 (GeneID 246) | -1.94 (active)
ALOX15 (GeneID 246) | -1.17
ALOX15 (GeneID 246) | -1.07
NAPSA (GeneID 9476) | 1.18
NAPSA (GeneID 9476) | 1.35
NAPSA (GeneID 9476) | 3.54 (active)
NAPSA (GeneID 9476) | 2.08
DUSP23 (GeneID 54935) | 0.15
DUSP23 (GeneID 54935) | 0.09
DUSP23 (GeneID 54935) | -0.09
DUSP23 (GeneID 54935) | -0.21
COA1 (GeneID 55744) | -0.28
COA1 (GeneID 55744) | -1.14
COA1 (GeneID 55744) | -0.61
COA1 (GeneID 55744) | -1.06
FGF16 (GeneID 8823) | -0.42
FGF16 (GeneID 8823) | 2.2
FGF16 (GeneID 8823) | 0.15
FGF16 (GeneID 8823) | 0.93
PRB3 (GeneID 5544) | -0.28
PRB3 (GeneID 5544) | 0.86
PRB3 (GeneID 5544) | 0.24
PRB3 (GeneID 5544) | -0.13
MELTF (GeneID 4241) | 1.34
MELTF (GeneID 4241) | 0.51
MELTF (GeneID 4241) | 0.55
MELTF (GeneID 4241) | -0.13
SLCO6A1 (GeneID 133482) | -0.96
SLCO6A1 (GeneID 133482) | -0.28
SLCO6A1 (GeneID 133482) | -0.23
SLCO6A1 (GeneID 133482) | 0.04
RBP4 (GeneID 5950) | 1.06
RBP4 (GeneID 5950) | 0.8
RBP4 (GeneID 5950) | 0.97
RBP4 (GeneID 5950) | 1.25

10 entries from above, arranged by “TNF reporter robust z-score”, high to low.
gene symbol | TNF reporter robust z-score
NAPSA (GeneID 9476) | 3.54 (active)
NAPSA (GeneID 9476) | 1.35
NAPSA (GeneID 9476) | 1.18
OR5M11 (GeneID 219487) | 0.03
OR5M11 (GeneID 219487) | 0
OR5M11 (GeneID 219487) | -0.05
ALOX15 (GeneID 246) | -1.07
ALOX15 (GeneID 246) | -1.17
ALOX15 (GeneID 246) | -1.47
ALOX15 (GeneID 246) | -1.94 (active)
